PubChem BioAssay AID1224830 | NIAID | 2016

Aim: 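Regulators of TLR4 signalling towards TNF-alpha in macrophage-like cells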 (primary screen)
System: human THP-1 monocytic leukaemia cells, TNF dual-luciferase reporter clone, PMA-differentiated to macrophage-like cells
Reagents: siRNA pool against human genes, 50 nM
Duration: LPS for 4 h, given about 3 days after siRNA transfection
Challenge: bacterial LPS (TLR4 ligand), 10 ng/ml
Measured: 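Ratio of firefly to renilla light, scaled to the plate median and expressed as a robust z-score per replicate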
Direction: TNF reporter robust z-score: higher = stronger TNF reporter response to LPS
Hit rule: 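a well is active when its z-score exceeds 2.8 or falls below -1.5; control wells carry no call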
Shown is an unselected part of about 18,000 reagents. Of all reagents, about 2,900 (16%) were called active. 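Calls are made per well; low scores hint the gene aids the LPS response, high scores that it dampens it.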 Repeated entries: four replicate wells of each siRNA pool. Reagent sequences are not shown.

| target | TNF reporter robust z-score | activity call |
| --- | --- | --- |
| OPN1MW2 (opsin 1, medium wave sensitive 2) | 0.11 | inactive |
| OPN1MW2 (opsin 1, medium wave sensitive 2) | 1.35 | inactive |
| OPN1MW2 (opsin 1, medium wave sensitive 2) | 0.43 | inactive |
| MGME1 (mitochondrial genome maintenance exonuclease 1) | 0.55 | inactive |
| MGME1 (mitochondrial genome maintenance exonuclease 1) | 1.83 | inactive |
| MGME1 (mitochondrial genome maintenance exonuclease 1) | 0.12 | inactive |
| MGME1 (mitochondrial genome maintenance exonuclease 1) | 0.9 | inactive |
| BSPRY (B-box and SPRY domain containing) | 1.71 | inactive |
| BSPRY (B-box and SPRY domain containing) | 1.18 | inactive |
| BSPRY (B-box and SPRY domain containing) | -0.71 | inactive |
| BSPRY (B-box and SPRY domain containing) | -0.73 | inactive |
| RHCG (Rh family C glycoprotein) | -0.6 | inactive |
| RHCG (Rh family C glycoprotein) | 0.34 | inactive |
| RHCG (Rh family C glycoprotein) | 0.37 | inactive |
| RHCG (Rh family C glycoprotein) | 0.77 | inactive |
| IGSF10 (immunoglobulin superfamily member 10) | 0.34 | inactive |
| IGSF10 (immunoglobulin superfamily member 10) | -0.15 | inactive |
| IGSF10 (immunoglobulin superfamily member 10) | -1.02 | inactive |
| IGSF10 (immunoglobulin superfamily member 10) | -0.74 | inactive |
| BLNK (B cell linker) | 0.79 | inactive |
| BLNK (B cell linker) | 0.54 | inactive |
| BLNK (B cell linker) | -0.21 | inactive |
| BLNK (B cell linker) | 1.91 | inactive |
| PDCD6 (programmed cell death 6) | 1.16 | inactive |
| PDCD6 (programmed cell death 6) | 2.64 | inactive |
| PDCD6 (programmed cell death 6) | 3.13 | active |
| PDCD6 (programmed cell death 6) | 4.05 | active |
| E2F4 (E2F transcription factor 4) | -0.04 | inactive |
| E2F4 (E2F transcription factor 4) | 0.57 | inactive |
| E2F4 (E2F transcription factor 4) | -0.16 | inactive |
| E2F4 (E2F transcription factor 4) | 0.49 | inactive |
| MAN2B1 (mannosidase alpha class 2B member 1) | -0.8 | inactive |
| MAN2B1 (mannosidase alpha class 2B member 1) | 2.6 | inactive |
| MAN2B1 (mannosidase alpha class 2B member 1) | 0.25 | inactive |
| MAN2B1 (mannosidase alpha class 2B member 1) | 1.1 | inactive |
| WASF2 (WASP family member 2) | 1.5 | inactive |
| WASF2 (WASP family member 2) | 1.49 | inactive |
| WASF2 (WASP family member 2) | 3.39 | active |
| WASF2 (WASP family member 2) | 2.59 | inactive |
| PIERCE1 (piercer of microtubule wall 1) | -0.85 | inactive |
| PIERCE1 (piercer of microtubule wall 1) | -0.33 | inactive |
| PIERCE1 (piercer of microtubule wall 1) | -0.35 | inactive |
| PIERCE1 (piercer of microtubule wall 1) | 0 | inactive |
| NPRL2 (NPR2 like, GATOR1 complex subunit) | -0.34 | inactive |
| NPRL2 (NPR2 like, GATOR1 complex subunit) | 0.86 | inactive |
| NPRL2 (NPR2 like, GATOR1 complex subunit) | -0.3 | inactive |
| NPRL2 (NPR2 like, GATOR1 complex subunit) | -0.21 | inactive |
| SLC17A3 | -1.64 | active |
| SLC17A3 | -1.42 | inactive |
| SLC17A3 | -1.34 | inactive |
| SLC17A3 | -0.75 | inactive |
| SLC60A1 | -0.6 | inactive |
| SLC60A1 | 0.24 | inactive |
| SLC60A1 | -1.17 | inactive |
| SLC60A1 | 0.46 | inactive |
| GPR31 (G protein-coupled receptor 31) | 0.75 | inactive |
| GPR31 (G protein-coupled receptor 31) | -0.01 | inactive |
| GPR31 (G protein-coupled receptor 31) | 0.29 | inactive |
| GPR31 (G protein-coupled receptor 31) | 1.21 | inactive |
| TRPV3 | -0.38 | inactive |
| TRPV3 | 0.63 | inactive |
| TRPV3 | 0.54 | inactive |
| TRPV3 | 0.49 | inactive |
| GRIA3 (glutamate ionotropic receptor AMPA type subunit 3) | -0.97 | inactive |
| GRIA3 (glutamate ionotropic receptor AMPA type subunit 3) | -1.56 | active |
| GRIA3 (glutamate ionotropic receptor AMPA type subunit 3) | -1.36 | inactive |
| GRIA3 (glutamate ionotropic receptor AMPA type subunit 3) | -1.05 | inactive |
| ZBTB12 (zinc finger and BTB domain containing 12) | 0.4 | inactive |
| ZBTB12 (zinc finger and BTB domain containing 12) | 0.49 | inactive |
| ZBTB12 (zinc finger and BTB domain containing 12) | 0.51 | inactive |
| ZBTB12 (zinc finger and BTB domain containing 12) | 0.13 | inactive |
| CLIC2 (CLIC family member 2) | -0.2 | inactive |
| CLIC2 (CLIC family member 2) | 0.53 | inactive |
| CLIC2 (CLIC family member 2) | 0.17 | inactive |
| CLIC2 (CLIC family member 2) | -0.14 | inactive |
| ITGA1 (integrin subunit alpha 1) | -0.85 | inactive |
| ITGA1 (integrin subunit alpha 1) | -0.24 | inactive |
| ITGA1 (integrin subunit alpha 1) | -0.53 | inactive |
| ITGA1 (integrin subunit alpha 1) | -0.46 | inactive |
| GAPDH (glyceraldehyde-3-phosphate dehydrogenase) | -0.61 | inactive |
| GAPDH (glyceraldehyde-3-phosphate dehydrogenase) | -0.92 | inactive |
| GAPDH (glyceraldehyde-3-phosphate dehydrogenase) | -0.62 | inactive |
| GAPDH (glyceraldehyde-3-phosphate dehydrogenase) | 0.22 | inactive |
| WFDC6 (WAP four-disulfide core domain 6) | -0.86 | inactive |
| WFDC6 (WAP four-disulfide core domain 6) | -1.12 | inactive |
| WFDC6 (WAP four-disulfide core domain 6) | -1.18 | inactive |
| WFDC6 (WAP four-disulfide core domain 6) | -0.78 | inactive |
| TUFM (Tu translation elongation factor, mitochondrial) | 0.57 | inactive |
| TUFM (Tu translation elongation factor, mitochondrial) | -0.1 | inactive |
| TUFM (Tu translation elongation factor, mitochondrial) | 0.52 | inactive |
| TUFM (Tu translation elongation factor, mitochondrial) | 0.4 | inactive |
| POLRMT (RNA polymerase mitochondrial) | 2.23 | inactive |
| POLRMT (RNA polymerase mitochondrial) | -0.01 | inactive |
| POLRMT (RNA polymerase mitochondrial) | -0.69 | inactive |
| POLRMT (RNA polymerase mitochondrial) | -0.72 | inactive |
| RPS4X (ribosomal protein S4 X-linked) | 1.87 | inactive |
| RPS4X (ribosomal protein S4 X-linked) | 0.99 | inactive |
| RPS4X (ribosomal protein S4 X-linked) | 1.3 | inactive |
| RPS4X (ribosomal protein S4 X-linked) | 2.16 | inactive |
| THRA (thyroid hormone receptor alpha) | – | inactive |
| THRA (thyroid hormone receptor alpha) | 0.69 | inactive |
| THRA (thyroid hormone receptor alpha) | 0.75 | inactive |
| THRA (thyroid hormone receptor alpha) | -0.02 | inactive |
| THRA (thyroid hormone receptor alpha) | -0.37 | inactive |
| PLCH1 (phospholipase C eta 1) | 0.03 | inactive |
| PLCH1 (phospholipase C eta 1) | -0.14 | inactive |
| PLCH1 (phospholipase C eta 1) | -0.66 | inactive |
| PLCH1 (phospholipase C eta 1) | 0.19 | inactive |
| CHSY3 (chondroitin sulfate synthase 3) | -0.46 | inactive |
| CHSY3 (chondroitin sulfate synthase 3) | -0.28 | inactive |
| CHSY3 (chondroitin sulfate synthase 3) | -1.8 | active |
| CHSY3 (chondroitin sulfate synthase 3) | 0.68 | inactive |

Active calls, among the entries above:
| target | TNF reporter robust z-score | activity call |
| --- | --- | --- |
| PDCD6 (programmed cell death 6) | 3.13 | active |
| PDCD6 (programmed cell death 6) | 4.05 | active |
| WASF2 (WASP family member 2) | 3.39 | active |
| SLC17A3 | -1.64 | active |
| GRIA3 (glutamate ionotropic receptor AMPA type subunit 3) | -1.56 | active |
| CHSY3 (chondroitin sulfate synthase 3) | -1.8 | active |
